From paper PMC7898604 come the findings set out here.

By UniProt entry, the sequences of proteins in these tests, tags left out.
UniProt Q12329: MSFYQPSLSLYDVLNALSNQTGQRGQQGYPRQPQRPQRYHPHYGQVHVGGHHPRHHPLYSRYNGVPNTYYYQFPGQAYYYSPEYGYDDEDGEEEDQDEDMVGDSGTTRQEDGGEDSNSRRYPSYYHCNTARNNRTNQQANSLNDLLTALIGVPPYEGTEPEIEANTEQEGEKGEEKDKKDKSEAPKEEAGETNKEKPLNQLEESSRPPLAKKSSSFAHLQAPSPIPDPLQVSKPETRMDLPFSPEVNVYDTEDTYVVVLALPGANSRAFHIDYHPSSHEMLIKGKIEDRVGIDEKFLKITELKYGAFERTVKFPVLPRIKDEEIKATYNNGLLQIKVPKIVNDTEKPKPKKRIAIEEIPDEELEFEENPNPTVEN

In one assay the target is T1, Oac1-GFP (S. cerevisiae) (UniProt P32332).
T1 sequence: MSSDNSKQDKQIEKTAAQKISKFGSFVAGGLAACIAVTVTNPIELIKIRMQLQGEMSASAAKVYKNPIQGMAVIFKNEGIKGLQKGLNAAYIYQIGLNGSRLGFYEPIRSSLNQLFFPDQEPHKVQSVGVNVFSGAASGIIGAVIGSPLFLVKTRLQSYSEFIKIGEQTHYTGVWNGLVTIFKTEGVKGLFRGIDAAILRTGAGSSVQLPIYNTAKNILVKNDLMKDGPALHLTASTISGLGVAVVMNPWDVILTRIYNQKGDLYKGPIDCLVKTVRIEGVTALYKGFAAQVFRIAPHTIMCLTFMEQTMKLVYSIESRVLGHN
Briefly: co-IP; yeast lysate, mouse anti-GFP antibody at 4°C overnight, Dynabeads Protein G; KHM IP Buffer (110 mM KAc, 20 mM HEPES-KOH pH 7.4, 2 mM MgCl2, 10% glycerol, 0.1% Triton-X100); blot for GFP and FLAG.

The target of assay [1] is GFP-tagged Hsp42 (S. cerevisiae) (UniProt Q12329). As to the kind of experiment: co-IP; yeast lysate, mouse anti-GFP antibody at 4°C overnight, Dynabeads Protein G; Tris IP Buffer (50 mM Tris pH 7.5, 150 mM NaCl, 1 mM EDTA, 10% glycerol, 1% IGEPAL); blot for GFP and FLAG.
The target in assay [2] is T2, GFP-tagged Get3 (S. cerevisiae) (UniProt Q12154).
T2 sequence: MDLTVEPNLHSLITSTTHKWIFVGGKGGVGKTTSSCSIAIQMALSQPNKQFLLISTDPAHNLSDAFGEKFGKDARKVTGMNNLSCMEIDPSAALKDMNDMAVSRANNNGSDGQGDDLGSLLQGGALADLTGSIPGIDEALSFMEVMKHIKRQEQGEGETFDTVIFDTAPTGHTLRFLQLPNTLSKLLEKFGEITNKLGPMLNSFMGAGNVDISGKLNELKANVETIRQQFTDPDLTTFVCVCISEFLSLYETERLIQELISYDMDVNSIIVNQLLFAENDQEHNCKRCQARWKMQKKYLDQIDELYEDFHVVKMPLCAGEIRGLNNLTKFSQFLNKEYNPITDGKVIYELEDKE
Briefly: co-IP; yeast lysate, mouse anti-GFP antibody at 4°C overnight, Dynabeads Protein G; KHM IP Buffer (110 mM KAc, 20 mM HEPES-KOH pH 7.4, 2 mM MgCl2, 10% glycerol, 0.1% Triton-X100); blot for GFP and FLAG.

Results are given in words; binding and its absence hold for the method and conditions named. Binding seen in cells or lysates may run through a third protein. Some results given as binding are weak or reduced against the parent protein; the word gives no strength. Tags and fused reporters may be left off the sequences shown.

B1: Get3 with a FLAG tag (prey of the Oac1-GFP immunoprecipitation, Fig S5C) (protein, UniProt Q12154 1-354)
chain: T2 sequence
For B1, in the assay with Oac1-GFP (S. cerevisiae), the binding entry is reported as “binds”.

B2: FLAG-tagged Oac1 (protein, UniProt P32332 1-324)
chain: T1 sequence
In the case of B2, the binding entry in assay [1] and in assay [2] was “binds” each time.
